From article PMC6993123
These are yes or no findings as the source states them, for the method shown. In cells and extracts the contact can be indirect. Some entries that bind do so weakly or less than the wild type. Sequences can lack the tags named with a protein.

Target: T1, 3xFLAG-SNAP-23 (human) (UniProt O00161)
T1 sequence: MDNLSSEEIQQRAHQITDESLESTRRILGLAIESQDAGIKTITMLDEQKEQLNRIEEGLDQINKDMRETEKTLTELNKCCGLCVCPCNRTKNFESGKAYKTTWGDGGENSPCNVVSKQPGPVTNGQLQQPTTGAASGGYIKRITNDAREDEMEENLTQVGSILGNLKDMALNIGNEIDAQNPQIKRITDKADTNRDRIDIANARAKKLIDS
Experiment: co-IP; HeLa cells infected with C. trachomatis L2 (MOI 5) or mock infected, transfected with 3xFLAG-SNAP-23; lysed at 24 h pi in 50 mM Tris pH 8.0, 150 mM NaCl, 10 mM EDTA, 5% glycerol, 1% Triton X-100; anti-FLAG (M2) overnight at 4°C, Protein G Plus agarose; Western blot

binding: binds
B1: Syntaxin 3 (protein, UniProt Q13277 1-289)
chain: MKDRLEQLKAKQLTQDDDTDAVEIAIDNTAFMDEFFSEIEETRLNIDKISEHVEEAKKLYSIILSAPIPEPKTKDDLEQLTTEIKKRANNVRNKLKSMEKHIEEDEVRSSADLRIRKSQHSVLSRKFVEVMTKYNEAQVDFRERSKGRIQRQLEITGKKTTDEELEEMLESGNPAIFTSGIIDSQISKQALSEIEGRHKDIVRLESSIKELHDMFMDIAMLVENQGEMLDNIELNVMHTVDHVEKARDETKKAVKYQSQARKKLIIIIVLVVVLLGILALIIGLSVGLN
